Our source for the binding values is paper PMC10543712.

Amino acid sequences for entries named in this document (tags omitted).
UniProt P63094: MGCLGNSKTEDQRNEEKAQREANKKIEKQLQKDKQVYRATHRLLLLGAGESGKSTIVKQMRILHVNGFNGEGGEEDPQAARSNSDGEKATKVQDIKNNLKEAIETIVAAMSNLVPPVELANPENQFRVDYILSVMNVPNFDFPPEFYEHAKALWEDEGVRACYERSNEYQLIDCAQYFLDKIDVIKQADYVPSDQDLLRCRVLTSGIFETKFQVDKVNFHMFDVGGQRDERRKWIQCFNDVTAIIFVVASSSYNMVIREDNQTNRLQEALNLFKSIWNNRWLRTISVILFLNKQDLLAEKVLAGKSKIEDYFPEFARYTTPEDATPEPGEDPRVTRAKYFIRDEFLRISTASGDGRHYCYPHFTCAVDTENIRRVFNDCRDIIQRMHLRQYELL

Results are given in words; binding and its absence hold for the method and conditions named. In cells and extracts the contact can be indirect. Some entries that bind do so weakly or less than the wild type. Tags and fused reporters may be left off the sequences shown.

Test [1] addresses T1, FLAG-tagged CRY1 (UniProt P97784).
T1 sequence: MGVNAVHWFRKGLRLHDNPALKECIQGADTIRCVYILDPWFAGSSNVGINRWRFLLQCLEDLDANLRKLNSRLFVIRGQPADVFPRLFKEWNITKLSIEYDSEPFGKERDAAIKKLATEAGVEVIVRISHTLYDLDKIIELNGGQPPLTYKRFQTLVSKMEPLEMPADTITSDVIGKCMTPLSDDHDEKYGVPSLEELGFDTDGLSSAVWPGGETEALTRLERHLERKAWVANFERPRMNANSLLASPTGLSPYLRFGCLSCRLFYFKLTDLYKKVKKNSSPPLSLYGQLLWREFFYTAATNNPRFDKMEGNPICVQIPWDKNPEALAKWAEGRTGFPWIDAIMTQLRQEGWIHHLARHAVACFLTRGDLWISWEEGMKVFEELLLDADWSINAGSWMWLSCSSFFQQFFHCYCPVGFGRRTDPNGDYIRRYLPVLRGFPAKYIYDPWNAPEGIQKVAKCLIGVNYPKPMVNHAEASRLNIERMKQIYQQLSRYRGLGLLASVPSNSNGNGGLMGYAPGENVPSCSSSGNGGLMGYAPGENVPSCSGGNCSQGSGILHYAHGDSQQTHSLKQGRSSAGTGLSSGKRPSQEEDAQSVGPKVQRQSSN
Briefly: co-IP; HA-tagged Gαs and FLAG-tagged CRY1 (or Cry1Δ11) coexpressed in HEK 293T cells; about 1 mg whole cell lysate (150 mM NaCl, 1% NP-40, 2 mM EDTA, 50 mM Tris pH 8.0) with 1 μg HA or FLAG Ab overnight at 4°C, protein G agarose; immunoblot with HA or FLAG Ab. In general terms: In western blotting, separated proteins are transferred to a membrane and probed.

For test [2], the target named is HA-tagged Gαs (UniProt P63094). The description is as above.

In the case of “HA-tagged Gαs (from UniProt P63094 1-394)”, in test [1], the binding result is on record as “binds”.

B1: FLAG-tagged CRY1 (protein, UniProt P97784 1-606)
chain: T1 sequence
Consider B1, for which, in test [2], the binding entry is listed as “binds”.
